# Reference: the supplement of paper PMC8728848
# The list shows a part of the results.
# B1: EULS2 M1 (Oryza sativa) (protein)
# chain: MVYCRANPNYAMTARNGAVVLAPANPKDEYQHWIKDMRWSTSIKDEEGYPAFALVNKATGQAIKHSLGQSHPVRLVPYNPEVMDESVLWTESRDVGNGFRCIRMVNNIYLNFDAFHGDKYHGGVRDGTDIVLWKLCEGDNQRWKIQPYYILEQKLISEEDLNSAVDHHHHHH
# Legend:
# Assay in all cases: glycan array binding signal (z-score within array); higher = stronger binding
# Conditions in all cases: glycan notation: IUPAC condensed, linker removed
# Fuc(a1-2)Gal = target: Fuc(a1-2)Gal
# Summary of the method: (§1)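 Glycan array data came from 3228 arrays in the Consortium for Functional Glycomics database, and only arrays with an available protein sequence were kept. Glycan names were put into IUPAC-condensed notation, and columns mapping to the same glycan were averaged. The binding signal is a within-array Z-score, averaged across arrays of one protein sequence run at different concentrations or buffers and across linkers. A negative Z-score can be read as non-binding.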
# Fuc(a1-2)Gal(b1-3)GalNAc = target: Fuc(a1-2)Gal(b1-3)GalNAc
# Summary of the method: as §1
# [1] = target: Fuc(a1-2)Gal(b1-3)GalNAc(a1-3)[Fuc(a1-2)]Gal(b1-4)Glc
# Summary of the method: as §1
# [2] = target: Fuc(a1-2)Gal(b1-3)GalNAc(a1-3)[Fuc(a1-2)]Gal(b1-4)GlcNAc
# Summary of the method: as §1
# [3] = target: Fuc(a1-2)Gal(b1-3)GalNAc(b1-3)Gal
# Summary of the method: as §1
# [4] = target: Fuc(a1-2)Gal(b1-3)GalNAc(b1-3)Gal(a1-4)Gal(b1-4)Glc
# Summary of the method: as §1
# [5] = target: Fuc(a1-2)Gal(b1-3)GalNAc(b1-4)[Neu5Ac(a2-3)]Gal(b1-4)Glc
# Summary of the method: as §1
# Fuc(a1-2)Gal(b1-3)GlcNAc = target: Fuc(a1-2)Gal(b1-3)GlcNAc
# Summary of the method: as §1
# [6] = target: Fuc(a1-2)Gal(b1-3)GlcNAc(b1-2)Man(a1-3)[Fuc(a1-2)Gal(b1-3)GlcNAc(b1-2)Man(a1-6)]Man(b1-4)GlcNAc(b1-4)GlcNAc
# Summary of the method: as §1
# [7] = target: Fuc(a1-2)Gal(b1-3)GlcNAc(b1-2)Man(a1-3)[Fuc(a1-2)Gal(b1-3)GlcNAc(b1-2)Man(a1-6)]Man(b1-4)GlcNAc(b1-4)[Fuc(a1-6)]GlcNAc
# Summary of the method: as §1
# [8] = target: Fuc(a1-2)Gal(b1-3)GlcNAc(b1-3)Gal(b1-4)Glc
# Summary of the method: as §1
# [9] = target: Fuc(a1-2)Gal(b1-3)GlcNAc(b1-3)GalNAc
# Summary of the method: as §1
# [10] = target: Fuc(a1-2)Gal(b1-3)GlcNAc(b1-3)[Fuc(a1-2)Gal(b1-3)GlcNAc(b1-6)]GalNAc
# Summary of the method: as §1
# [11] = target: Fuc(a1-2)Gal(b1-3)GlcNAc(b1-3)[Gal(b1-4)GlcNAc(b1-6)]Gal(b1-4)Glc
# Summary of the method: as §1
# [12] = target: Fuc(a1-2)Gal(b1-3)GlcNAc(b1-3)[Neu5Ac(a2-6)Gal(b1-4)GlcNAc(b1-6)]Gal(b1-4)Glc
# Summary of the method: as §1
# [13] = target: Fuc(a1-2)Gal(b1-3)GlcNAc6S
# Summary of the method: as §1
# [14] = target: Fuc(a1-2)Gal(b1-3)[Fuc(a1-4)]GlcNAc
# Summary of the method: as §1
# [15] = target: Fuc(a1-2)Gal(b1-3)[Fuc(a1-4)]GlcNAc(b1-2)Man(a1-3)[Fuc(a1-2)Gal(b1-3)[Fuc(a1-4)]GlcNAc(b1-2)Man(a1-3)]Man(b1-4)GlcNAc(b1-4)GlcNAc
# Summary of the method: as §1
# [16] = target: Fuc(a1-2)Gal(b1-3)[Fuc(a1-4)]GlcNAc(b1-2)Man(a1-3)[Fuc(a1-2)Gal(b1-3)[Fuc(a1-4)]GlcNAc(b1-2)Man(a1-6)]Man(b1-4)GlcNAc(b1-4)[Fuc(a1-6)]GlcNAc(b1-4)[Fuc(a1-6)]GlcNAc
# Summary of the method: as §1
# [17] = target: Fuc(a1-2)Gal(b1-3)[Fuc(a1-4)]GlcNAc(b1-3)[Fuc(a1-3)[Gal(b1-4)]GlcNAc(b1-6)]Gal(b1-4)Glc
# Summary of the method: as §1
# [18] = target: Fuc(a1-2)Gal(b1-3)[Fuc(a1-4)]GlcNAc(b1-3)[Gal(b1-4)GlcNAc(b1-6)]Gal(b1-4)Glc
# Summary of the method: as §1
# Fuc(a1-2)Gal(b1-4)Glc = target: Fuc(a1-2)Gal(b1-4)Glc
# Summary of the method: as §1
# Fuc(a1-2)Gal(b1-4)Glc6S = target: Fuc(a1-2)Gal(b1-4)Glc6S
# Summary of the method: as §1
# Fuc(a1-2)Gal(b1-4)GlcNAc = target: Fuc(a1-2)Gal(b1-4)GlcNAc
# Summary of the method: as §1
# [19] = target: Fuc(a1-2)Gal(b1-4)GlcNAc(b1-2)Man
# Summary of the method: as §1
# [20] = target: Fuc(a1-2)Gal(b1-4)GlcNAc(b1-2)Man(a1-3)[Fuc(a1-2)Gal(b1-4)GlcNAc(b1-2)Man(a1-6)]Man(b1-4)GlcNAc(b1-4)GlcNAc
# Summary of the method: as §1
# [21] = target: Fuc(a1-2)Gal(b1-4)GlcNAc(b1-2)Man(a1-3)[Fuc(a1-2)Gal(b1-4)GlcNAc(b1-2)Man(a1-6)]Man(b1-4)GlcNAc(b1-4)[Fuc(a1-6)]GlcNAc
# Summary of the method: as §1
# [22] = target: Fuc(a1-2)Gal(b1-4)GlcNAc(b1-2)[Fuc(a1-2)Gal(b1-4)GlcNAc(b1-4)]Man(a1-3)[Fuc(a1-2)Gal(b1-4)GlcNAc(b1-2)Man(a1-6)]Man(b1-4)GlcNAc(b1-4)GlcNAc
# Summary of the method: as §1
# [23] = target: Fuc(a1-2)Gal(b1-4)GlcNAc(b1-3)Gal(b1-4)GlcNAc
# Summary of the method: as §1
# [24] = target: Fuc(a1-2)Gal(b1-4)GlcNAc(b1-3)Gal(b1-4)GlcNAc(b1-2)Man(a1-3)[Fuc(a1-2)Gal(b1-4)GlcNAc(b1-3)Gal(b1-4)GlcNAc(b1-2)Man(a1-6)]Man(b1-4)GlcNAc(b1-4)GlcNAc
# Summary of the method: as §1
# [25] = target: Fuc(a1-2)Gal(b1-4)GlcNAc(b1-3)Gal(b1-4)GlcNAc(b1-3)Gal(b1-4)GlcNAc
# Summary of the method: as §1
# [26] = target: Fuc(a1-2)Gal(b1-4)GlcNAc(b1-3)GalNAc
# Summary of the method: as §1
# [27] = target: Fuc(a1-2)Gal(b1-4)GlcNAc(b1-3)[Fuc(a1-2)Gal(b1-4)GlcNAc(b1-6)]GalNAc
# Summary of the method: as §1
# [28] = target: Fuc(a1-2)Gal(b1-4)GlcNAc(b1-3)[Fuc(a1-3)[Gal(b1-4)]GlcNAc(b1-6)]Gal(b1-4)Glc
# Summary of the method: as §1
# [29] = target: Fuc(a1-2)Gal(b1-4)GlcNAc(b1-6)GalNAc
# Summary of the method: as §1
# [30] = target: Fuc(a1-2)Gal(b1-4)GlcNAc6S
# Summary of the method: as §1
# [31] = target: Fuc(a1-2)Gal(b1-4)[Fuc(a1-3)]GlcNAc
# Summary of the method: as §1
binder,measurement,setting,value
B1,glycan array binding signal (z-score),Fuc(a1-2)Gal,1.54
same,glycan array binding signal (z-score),Fuc(a1-2)Gal(b1-3)GalNAc,-0.456
same,glycan array binding signal (z-score),[1],-0.333
same,glycan array binding signal (z-score),[2],0.17
same,glycan array binding signal (z-score),[3],-0.281
same,glycan array binding signal (z-score),[4],1.34
same,glycan array binding signal (z-score),[5],-0.318
same,glycan array binding signal (z-score),Fuc(a1-2)Gal(b1-3)GlcNAc,-0.123
same,glycan array binding signal (z-score),[6],0.35
same,glycan array binding signal (z-score),[7],-0.068
same,glycan array binding signal (z-score),[8],-0.208
same,glycan array binding signal (z-score),[9],0
same,glycan array binding signal (z-score),[10],-0.878
same,glycan array binding signal (z-score),[11],-0.34
same,glycan array binding signal (z-score),[12],-0.404
same,glycan array binding signal (z-score),[13],-0.334
same,glycan array binding signal (z-score),[14],0.584
same,glycan array binding signal (z-score),[15],0.639
same,glycan array binding signal (z-score),[16],0.969
same,glycan array binding signal (z-score),[17],-0.033
same,glycan array binding signal (z-score),[18],-0.499
same,glycan array binding signal (z-score),Fuc(a1-2)Gal(b1-4)Glc,-0.519
same,glycan array binding signal (z-score),Fuc(a1-2)Gal(b1-4)Glc6S,-0.329
same,glycan array binding signal (z-score),Fuc(a1-2)Gal(b1-4)GlcNAc,-0.592
same,glycan array binding signal (z-score),[19],-0.162
same,glycan array binding signal (z-score),[20],2.08
same,glycan array binding signal (z-score),[21],1.59
same,glycan array binding signal (z-score),[22],0.298
same,glycan array binding signal (z-score),[23],-0.744
same,glycan array binding signal (z-score),[24],-0.1
same,glycan array binding signal (z-score),[25],-0.231
same,glycan array binding signal (z-score),[26],-0.497
same,glycan array binding signal (z-score),[27],-0.457
same,glycan array binding signal (z-score),[28],-0.817
same,glycan array binding signal (z-score),[29],-0.401
same,glycan array binding signal (z-score),[30],-0.194
same,glycan array binding signal (z-score),[31],-0.363

# Given with bars between the fields: entries from further up.
binder | measurement | setting | value
B1 | glycan array binding signal (z-score) | [2] | 0.17
same | glycan array binding signal (z-score) | [4] | 1.34
same | glycan array binding signal (z-score) | Fuc(a1-2)Gal(b1-4)GlcNAc | -0.592
